# Results: PubChem BioAssay AID540275 (National Center for Advancing Translational Sciences (NCATS), 2011)
# Sequences of proteins named here, by UniProt entry; tags and fusion partners are left off.
# UniProt Q8NER1, whole entry, looked up: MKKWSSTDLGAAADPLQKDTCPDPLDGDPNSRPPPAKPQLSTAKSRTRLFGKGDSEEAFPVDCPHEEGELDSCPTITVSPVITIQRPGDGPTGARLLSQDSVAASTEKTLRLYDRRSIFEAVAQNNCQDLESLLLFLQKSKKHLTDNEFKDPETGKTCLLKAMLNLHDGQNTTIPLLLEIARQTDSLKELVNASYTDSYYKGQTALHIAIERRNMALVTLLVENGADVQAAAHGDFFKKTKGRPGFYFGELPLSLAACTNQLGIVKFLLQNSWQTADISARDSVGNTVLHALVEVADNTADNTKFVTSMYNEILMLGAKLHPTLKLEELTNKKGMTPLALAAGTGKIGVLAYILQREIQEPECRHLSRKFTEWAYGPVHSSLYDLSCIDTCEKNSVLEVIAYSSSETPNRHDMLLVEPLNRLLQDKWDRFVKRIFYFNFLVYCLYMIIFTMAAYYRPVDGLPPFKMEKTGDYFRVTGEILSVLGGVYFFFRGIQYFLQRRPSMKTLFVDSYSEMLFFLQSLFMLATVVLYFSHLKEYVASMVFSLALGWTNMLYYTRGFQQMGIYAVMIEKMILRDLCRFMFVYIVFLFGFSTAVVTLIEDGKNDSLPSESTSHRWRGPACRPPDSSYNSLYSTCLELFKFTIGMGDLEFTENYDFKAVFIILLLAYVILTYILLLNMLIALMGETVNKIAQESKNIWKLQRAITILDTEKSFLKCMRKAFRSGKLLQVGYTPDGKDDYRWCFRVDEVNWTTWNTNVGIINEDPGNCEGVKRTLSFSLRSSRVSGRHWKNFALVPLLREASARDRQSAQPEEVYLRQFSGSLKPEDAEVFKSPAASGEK
# Among all 320,000 compounds or so, about 620 (0.19%) were called active. Inconclusive results, whose numbers are uncertain, are shown with a selection of clear calls. Cut-off read from the data, not from the text of the source: active = activation above about 80%; inconclusive = between about 30% and that limit; inactive = weaker than that.
# Biological target: Transient receptor potential cation channel subfamily V member 1 (Homo sapiens) (UniProt Q8NER1)
# Experiment: HTS Assay for Compounds that Act as Agonists of the Vanilloid Receptor 1; note: 0% is about no effect
# Settings: TRPV1-expressing cells, Fluo-8 calcium influx, agonist mode; at 8.33 µM, hits give high values
# How it was run: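 Cells expressing TRPV1 were dye-loaded with Fluo-8 and read kinetically: 10 s baseline, 3 min after compound (agonist portion), then 2 min after EC20 capsaicin (allosteric enhancer portion). Calcium-bound dye fluorescence at 480/520 nm.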
row,SMILES,activation
1,C/C(N)=C(/C#N)C(=O)COC(=O)C1CCC(C(C)(C)C)CC1 (stereo not given),inconclusive: 46.5%
2,Cc1cc(C)c(C)c(S(=O)(=O)NCC(=O)Nc2ccc(F)cc2)c1C,inconclusive: 44.3%
3,CCOCCCNC(=O)C(c1ccccc1)N(Cc1ccc2c(c1)OCO2)C(=O)c1ccccc1O (stereo not given),inactive: 6.09%
4,Cc1c(C(=O)OC(C)C)sc(N)c1C(=O)OC(C)C,inconclusive: 40.2%
5,COc1cc(/C=N/NC(N)=S)ccc1OC(=O)c1ccc(C)cc1,inactive: 13.1%
6,Cc1c(CCC(=O)NCCCn2ccnc2)c(=O)oc2c(C)c3occ(C(C)(C)C)c3cc12,inconclusive: 58.6%
7,COc1ccc(NC(=O)C2CCN(S(=O)(=O)c3ccc(Br)s3)CC2)cc1OC,inconclusive: 62.6%
8,CCCCCCCCn1c(=O)c(C(=O)OC)c(N)c2ccccc21,inconclusive: 35.8%
9,COc1ccc(NC(=O)c2ccccc2)cc1,inconclusive: 44%
10,Cc1ccc(N/C=C(\C#N)S(=O)(=O)c2ccccc2)cc1,inconclusive: 39%
11,O=C(NCCCn1ccnc1)C(=O)NCC1OCCN1S(=O)(=O)c1ccc(Cl)cc1 (stereo not given),inactive: -4.55%
12,Cc1ccc(/C=C/c2nnc(-c3cccc(C)c3)o2)cc1,inconclusive: 36.9%
13,Cc1cc(CN2CCCCC2C(=O)Nc2ccc(Oc3cccnc3)cc2)oc1C (stereo not given),inconclusive: 67%
14,COCCNC(=O)/C(C#N)=C/c1ccc(O)c([N+](=O)[O-])c1,inactive: -1.5%
15,CCOc1ccc(NC(=O)c2nsc(Cl)c2Cl)cc1,inconclusive: 68.7%
16,COc1c(Cl)cc(Cl)cc1/C=N/NC(=O)c1nnn(-c2nonc2N)c1CN1CCC(C)CC1,inactive: 3.07%
17,NS(=O)(=O)c1ccc(NC(=O)COC(=O)c2cn(-c3ccccc3)nc2-c2ccccc2)cc1,inconclusive: 56.3%
18,O=C(CCl)N(C/C=C/c1ccccc1)c1ccc2c(c1)OCCO2,inactive: 1.6%
19,O=C(Nc1ccccc1)Nc1nc(-c2ccc(F)cc2)cs1,inconclusive: 61.7%
20,Cc1ccc(-c2noc(C3CCN(C(=O)Nc4ccc(C#N)cc4)CC3)n2)o1,inconclusive: 67.1%
21,CCOC(=O)C1=C(C)N(c2ccc(Cl)cc2)C(=O)NC1c1cccc([N+](=O)[O-])c1 (stereo not given),inactive: -11.5%
22,CC(C)(C)C(=O)N1CCN(c2nc3ccc(Cl)cc3s2)CC1,inconclusive: 43.3%
23,CCN(CC)c1ccc(NC(=O)COC(=O)CCC(=O)c2ccc(F)cc2)cc1,inconclusive: 32.7%

row,SMILES,activation
1,CCOc1ccc(N2CC(O)(c3ccc(F)cc3)[N+]3=C2CCCC3)cc1 (stereo not given),inactive: -1.43%
2,CCC(OC(=O)c1cccs1)C(=O)NCc1ccc(C)cc1 (stereo not given),inactive: 15.2%
3,Cc1ccc2nc3c(cc(C#N)c(=O)n3-c3nccs3)c(=O)n2c1,inactive: 3.76%
4,Cc1c(NC(=O)C(C)Sc2nc(N)cc(=O)[nH]2)c(=O)n(-c2ccccc2)n1C (stereo not given),inactive: -0.432%
5,COc1cc(CNCC(C)C)c(Br)cc1OCC(=O)NCc1ccccc1,inactive: 1.15%
6,Oc1c(C=Nc2ccccc2)sc2ccccc12,inactive: -2.54%
7,COc1cccc(CN(C)C(=O)C23CC4CC(CC(C4)C2)C3)c1,inconclusive: 33.5%
8,CCOC(=O)CSc1nc2sc(C)c(C)c2c(=O)n1C,inactive: 17%
9,Cc1cc(NC(=O)CC(C)C)c(=O)n(Cc2ccccc2F)c1,inactive: 0.732%
10,Cc1ccc(NC(=O)N2CCCCC2)cc1[N+](=O)[O-],inconclusive: 58%
11,COc1ccc2[nH]c(-c3ccc(C)cc3)cc(=O)c2c1,inconclusive: 48.9%
12,Cc1onc(-c2ccccc2Cl)c1C(=O)OCC(=O)Nc1ccc2c(c1)OCO2,inconclusive: 31.3%
13,Cc1ccc(SCc2ccc(C(=O)Nc3cccc([N+](=O)[O-])c3)cc2)cc1,inconclusive: 63.5%
14,O=C(NCCc1ccc(O)c(O)c1)C1COc2ccccc2O1 (stereo not given),active: 88.9%
15,CN(CC(=O)NC(=O)NC1CCCCC1)CC(=O)Nc1ccc(Cl)cc1,inconclusive: 72.2%
16,O=C(NCC1CCCO1)c1cccc(Oc2ccccc2)c1 (stereo not given),inconclusive: 30.4%
17,Cc1ccsc1C(=O)NCCC(c1ccccc1)c1ccccc1,inconclusive: 52.2%
18,CCOc1ccc(N=Nc2c(=O)[nH]n3c(C)cc(C)nc23)cc1,inactive: 0.881%
19,COc1cccc(CN(C)CC(=O)NCc2ccccc2Cl)c1OC,inconclusive: 41.9%
20,CS(=O)(=O)N1CCC(C(=O)Nc2cc(Cl)c(Cl)cc2Cl)CC1,inconclusive: 30.6%
21,O=C(/C=C/c1ccccc1[N+](=O)[O-])Nc1ccccc1,inconclusive: 34.9%
22,CCC(=O)N/C=C/n1cnc2cc(C(F)(F)F)ccc21,inconclusive: 30.1%
23,CC(C)c1ccccc1OCCNC(=O)c1cccnc1,inconclusive: 32.4%

# Part of the list above, as tab-separated lines.
row	SMILES	activation
17	NS(=O)(=O)c1ccc(NC(=O)COC(=O)c2cn(-c3ccccc3)nc2-c2ccccc2)cc1	inconclusive: 56.3%
18	O=C(CCl)N(C/C=C/c1ccccc1)c1ccc2c(c1)OCCO2	inactive: 1.6%
19	O=C(Nc1ccccc1)Nc1nc(-c2ccc(F)cc2)cs1	inconclusive: 61.7%
20	Cc1ccc(-c2noc(C3CCN(C(=O)Nc4ccc(C#N)cc4)CC3)n2)o1	inconclusive: 67.1%

# Next records follow:

row,SMILES,activation
1,Cn1nc(-c2ccc(N3CCOCC3)c(NS(=O)(=O)c3ccc(Cl)cc3)c2)c2ccccc2c1=O,inactive: 4.29%
2,Cn1c(=O)c2c(SCC(=O)NCC3CCCO3)nc(CC(C)(C)C)nc2n(C)c1=O (stereo not given),inconclusive: 30.7%
3,COC(=O)c1c(/N=C/NOCc2ccc(Cl)cc2)sc2c1CCN(c1ncc(C(F)(F)F)cc1Cl)C2,inactive: -4.38%
4,O=c1[nH]c(CSc2nc3ccccc3[nH]2)nc2c1cnn2-c1ccccc1,inconclusive: 35.7%
5,O=C(Cc1cccs1)NCc1ccc(Cl)cc1,inconclusive: 34.7%
6,Cc1ccc(S(=O)(=O)N2CCOCC2)cc1C(=O)N(Cc1nnc(-c2ccccc2Cl)o1)C1CC1,inactive: 2.2%
7,CN(C)c1ccc(/C=N\Nc2nc(-c3ccccc3)cc(=O)[nH]2)cc1,inconclusive: 44.6%
8,Cc1nc(CC(=O)N2CCN(c3cccc(C)c3C)CC2)cs1,inconclusive: 47.9%
9,O=c1c2cc(NC(=S)NCCN3CCCCCC3)ccc2nc2n1CCCCC2,inactive: 0.0412%
10,Cc1cc(C2=NNC(=Nc3ccccc3)SC2)c(C)n1C,inactive: 0.878%
11,CCCN(CCC)CCCNC(=O)c1cc2c(=O)[nH]c3ccccc3c2n1C,inactive: 1.53%
12,O=C(c1cc(S(=O)(=O)N2CCOCC2)ccc1F)N1CCN(Cc2ccccc2)CC1,inconclusive: 65.2%
13,CC(C)Oc1ccc(NC(=O)Oc2ccccc2)cc1,inactive: 6.5%
14,COc1ccc(N=Cc2c(O)c3ccccc3n2C(C)=O)cc1,inconclusive: 30.4%
15,CCCCC(=O)NC(=O)NC(c1ccccc1)c1ccccc1,inconclusive: 48%
16,O=C1CC[C@@H](O)CCN1CC[C@H](Sc1ccccc1)c1ccccc1,inconclusive: 66%
17,CC(C)COc1ccc(C(=O)Nc2ccc([N+](=O)[O-])cc2)cc1,inconclusive: 61.5%
18,Fc1ccc(CNC(=S)NCc2ccc(F)cc2)cc1,inconclusive: 79.2%
19,COc1ccc(/C=N/Nc2cc(C)nc3ccc(Br)cc23)cc1,inactive: 14.2%
20,COc1ccc(NC(=O)c2ccc(S(=O)(=O)N(C)c3ccccc3)cc2)cn1,inconclusive: 63.8%
21,COc1ccc(-c2ccc(=O)n(Cc3ccc([N+](=O)[O-])cc3)n2)cc1,inconclusive: 68.3%
22,Nc1ccc(C(=O)O)c(O)c1,inconclusive: 40%
23,CC(=O)Nc1ccc(S(=O)(=O)NC2CC(=O)N(c3ccc4c(c3)OCCO4)C2)cc1 (stereo not given),inactive: 1.53%

row,SMILES,activation
1,COc1cccc(CNC(=S)Nc2cc(C)ccc2C)c1,inconclusive: 76.7%
2,Cc1ccc(S(=O)(=O)NCC(=O)NCC2CCCCC2)cc1C,inconclusive: 32.3%
3,CC(=O)Nc1cccc(-c2nc3ccccc3o2)c1,inconclusive: 61.3%
4,Cc1cs/c(=N/C(=S)Nc2ccccc2)n1C,inactive: 4.58%
5,Cc1ccccc1Oc1cc(NC(=O)CCCn2nc(C)c([N+](=O)[O-])c2C)cc([N+](=O)[O-])c1,inconclusive: 34%
6,CSCCCNC(=S)N1CCN(S(=O)(=O)c2cccc(C(F)(F)F)c2)CC1,inconclusive: 34.7%
7,COc1ccc2c(c1)CCc1c(C(=O)N3CCc4ccccc4C3)noc1-2,inconclusive: 37.7%
8,CNC(=O)c1[nH]cnc1C(=O)N[C@@H](CC(C)C)C(=O)OC(C)(C)C,inconclusive: 58.5%
9,CCCCc1ccc(NC=C2C(=O)OC3(CCCCC3)OC2=O)cc1,inconclusive: 45.1%
10,Cc1cc(OCc2cc(C(=O)NCC3(C)COC3)no2)cc(C)c1Cl,inconclusive: 32%
11,CN(C)S(=O)(=O)c1ccc2nc(NC(=O)c3cccs3)sc2c1,inconclusive: 42.4%
12,O=C1Nc2ccc(Cl)cc2[C@@](C#CC2CC2)(C(F)(F)F)O1,inconclusive: 45.4%
13,Cc1cc(C)cc(C(=O)N(NC(=O)Nc2ccc(Cl)cc2)C(C)(C)C)c1,inactive: 13.4%
14,CCc1ccc(/C=N\NC(=O)c2ccc(Br)o2)s1,inconclusive: 49.9%
15,O=C(N/N=C/c1cccc(C(F)(F)F)c1)c1ccccc1O,inconclusive: 43.4%
16,Cc1ccc(C(=O)COc2cccc(NC(=O)c3ccco3)c2)cc1,inconclusive: 46.9%
17,COc1ccc(/C=C/C2=CC(C)(C)NC(=S)N2)cc1OC,inactive: -0.52%
18,Fc1ccccc1/C=N/Nc1nc(N2CCCCC2)nc(N2CCCCC2)n1,inconclusive: 63.7%
19,COc1ccc(Cc2nnc(NS(=O)(=O)c3ccc([N+](=O)[O-])cc3)s2)cc1,inactive: -0.33%
20,O=C1c2ccccc2C(Nc2ccc(Cl)cn2)N1Cc1ccccc1 (stereo not given),inconclusive: 67.2%
21,CCCCc1ccc(NC(=S)N2CCCC2)cc1,inconclusive: 63.6%
